Test [1] concerns the target T1, GST-NCL-NTD(1-110) (rabbit) (UniProt G1TVT0).
T1 sequence: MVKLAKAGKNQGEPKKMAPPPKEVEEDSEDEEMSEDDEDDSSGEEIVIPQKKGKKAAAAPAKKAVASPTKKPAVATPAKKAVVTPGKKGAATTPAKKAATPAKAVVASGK
Put plainly: pull-down.

Test [2] has as its target T2, GST-NCL-NTD(111-214) (rabbit) (UniProt G1TVT0).
T2 sequence: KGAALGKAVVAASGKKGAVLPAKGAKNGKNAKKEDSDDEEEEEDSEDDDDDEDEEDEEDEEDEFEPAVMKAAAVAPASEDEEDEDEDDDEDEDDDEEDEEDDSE
Description: condition: 25 μM GST fusion protein, 3-fold molar excess of prey.

Test [3] concerns the target T3, GST-NCL-NTD(215-318) (rabbit) (UniProt G1TVT0).
T3 sequence: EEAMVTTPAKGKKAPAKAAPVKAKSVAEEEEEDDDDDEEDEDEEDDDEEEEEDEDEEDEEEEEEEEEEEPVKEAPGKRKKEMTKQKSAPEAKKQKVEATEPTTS
The test is described as above.

No constants are given. Whether binding was seen depends on the method and setting. In cells and extracts the contact can be indirect. For part of these data: Binding can be weak; no strength is given. Sequences can lack the tags named with a protein.

Consider p16-myc, for which the binding entry in test [1] is reported as “binds”; in test [2], “no binding”; in test [3], “no binding”.
